These results are taken from article PMC7140031.

By UniProt entry, the sequences of proteins in these tests, tags left out. Where a name states a change or a piece, a line headed by the entry shows the natural chain unless it says otherwise. Residues count along the entry.
UniProt P10275: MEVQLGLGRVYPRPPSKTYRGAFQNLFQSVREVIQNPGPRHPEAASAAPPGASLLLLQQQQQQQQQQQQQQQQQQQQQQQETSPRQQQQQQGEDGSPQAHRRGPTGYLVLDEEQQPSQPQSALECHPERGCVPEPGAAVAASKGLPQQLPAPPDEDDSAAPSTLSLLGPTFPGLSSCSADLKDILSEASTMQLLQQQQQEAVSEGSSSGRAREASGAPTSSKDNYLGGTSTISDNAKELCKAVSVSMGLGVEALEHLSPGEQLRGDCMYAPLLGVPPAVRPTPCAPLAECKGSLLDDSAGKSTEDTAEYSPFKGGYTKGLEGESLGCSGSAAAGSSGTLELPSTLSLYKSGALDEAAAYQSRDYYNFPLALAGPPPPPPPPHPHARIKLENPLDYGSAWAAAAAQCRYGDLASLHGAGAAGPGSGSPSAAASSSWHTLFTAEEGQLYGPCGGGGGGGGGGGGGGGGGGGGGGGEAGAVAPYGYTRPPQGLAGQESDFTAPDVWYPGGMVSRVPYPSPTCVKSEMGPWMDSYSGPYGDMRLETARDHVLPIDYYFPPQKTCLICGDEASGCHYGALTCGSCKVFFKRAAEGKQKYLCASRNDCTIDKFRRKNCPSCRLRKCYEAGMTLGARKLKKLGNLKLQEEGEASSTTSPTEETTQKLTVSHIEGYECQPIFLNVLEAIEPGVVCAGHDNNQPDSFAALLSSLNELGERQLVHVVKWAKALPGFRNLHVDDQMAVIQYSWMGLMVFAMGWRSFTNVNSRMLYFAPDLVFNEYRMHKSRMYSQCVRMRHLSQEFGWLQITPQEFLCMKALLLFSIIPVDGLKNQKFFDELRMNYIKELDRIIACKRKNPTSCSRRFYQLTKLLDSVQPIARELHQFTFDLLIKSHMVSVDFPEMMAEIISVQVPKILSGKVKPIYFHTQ
UniProt Q13887: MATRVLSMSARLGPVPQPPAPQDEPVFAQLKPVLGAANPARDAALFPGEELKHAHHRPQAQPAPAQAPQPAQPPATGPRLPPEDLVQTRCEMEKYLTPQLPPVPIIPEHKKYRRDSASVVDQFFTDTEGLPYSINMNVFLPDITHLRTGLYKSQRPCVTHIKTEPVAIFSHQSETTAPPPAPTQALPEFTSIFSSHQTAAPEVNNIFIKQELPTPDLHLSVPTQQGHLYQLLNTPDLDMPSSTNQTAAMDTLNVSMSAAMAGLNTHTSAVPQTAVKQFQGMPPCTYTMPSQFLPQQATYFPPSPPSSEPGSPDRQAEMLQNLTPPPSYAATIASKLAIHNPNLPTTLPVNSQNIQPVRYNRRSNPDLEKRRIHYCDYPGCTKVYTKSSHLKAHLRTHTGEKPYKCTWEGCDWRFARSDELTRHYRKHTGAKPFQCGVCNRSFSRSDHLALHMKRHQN
KLF5 fragment, residues 1-200: residues 1-200 of Q13887
UniProt Q9Z0Z7: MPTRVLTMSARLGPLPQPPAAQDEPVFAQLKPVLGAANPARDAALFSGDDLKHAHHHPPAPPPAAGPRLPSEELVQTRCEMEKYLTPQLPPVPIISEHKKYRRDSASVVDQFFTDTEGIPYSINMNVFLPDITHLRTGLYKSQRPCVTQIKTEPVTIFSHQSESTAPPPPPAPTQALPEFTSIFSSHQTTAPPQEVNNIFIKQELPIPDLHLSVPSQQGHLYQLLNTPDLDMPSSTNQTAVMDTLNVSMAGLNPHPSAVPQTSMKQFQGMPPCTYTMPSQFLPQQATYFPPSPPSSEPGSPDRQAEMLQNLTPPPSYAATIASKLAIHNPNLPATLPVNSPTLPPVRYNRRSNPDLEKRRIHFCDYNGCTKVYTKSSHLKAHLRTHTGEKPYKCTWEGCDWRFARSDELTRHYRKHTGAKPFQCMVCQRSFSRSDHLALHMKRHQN
UniProt P19091: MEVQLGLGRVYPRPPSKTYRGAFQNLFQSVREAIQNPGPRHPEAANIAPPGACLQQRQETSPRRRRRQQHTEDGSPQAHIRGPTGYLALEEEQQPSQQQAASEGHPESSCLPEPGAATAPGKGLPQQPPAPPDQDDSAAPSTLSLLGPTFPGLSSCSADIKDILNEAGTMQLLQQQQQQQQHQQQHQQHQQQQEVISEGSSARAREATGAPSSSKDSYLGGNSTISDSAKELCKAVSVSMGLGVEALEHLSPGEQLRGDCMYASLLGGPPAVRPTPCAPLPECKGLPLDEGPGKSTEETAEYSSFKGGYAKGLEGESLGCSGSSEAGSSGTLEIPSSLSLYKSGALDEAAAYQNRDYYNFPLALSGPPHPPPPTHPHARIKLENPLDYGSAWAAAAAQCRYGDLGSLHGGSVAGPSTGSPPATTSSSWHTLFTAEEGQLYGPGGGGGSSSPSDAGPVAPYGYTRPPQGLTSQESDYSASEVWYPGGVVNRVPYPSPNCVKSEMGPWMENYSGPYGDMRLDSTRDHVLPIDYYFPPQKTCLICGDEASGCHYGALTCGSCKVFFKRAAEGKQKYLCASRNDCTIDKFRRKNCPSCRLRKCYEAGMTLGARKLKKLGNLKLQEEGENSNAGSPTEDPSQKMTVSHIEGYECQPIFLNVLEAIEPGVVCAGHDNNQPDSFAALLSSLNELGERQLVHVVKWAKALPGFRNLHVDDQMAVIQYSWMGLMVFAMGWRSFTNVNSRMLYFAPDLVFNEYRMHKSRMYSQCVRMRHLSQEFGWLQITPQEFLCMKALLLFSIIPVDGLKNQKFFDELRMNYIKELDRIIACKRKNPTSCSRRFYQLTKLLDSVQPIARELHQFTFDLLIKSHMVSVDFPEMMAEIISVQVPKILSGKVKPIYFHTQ

Results are given in words; binding and its absence hold for the method and conditions named. In cells and extracts the contact can be indirect. Some binding calls cover weakened binding; strength is not graded here.

The target of experiment [1] is FLAG-tagged AR (androgen receptor) (UniProt P10275). Description: co-IP; HEK293T cells co-transfected, 48 h; lysis in 50 mM Tris pH 7.4, 150 mM NaCl, 2 mM EDTA, 0.8% NP-40, 0.2% Triton X-100, 3% glycerol; anti-FLAG-agarose beads, 4 °C, 2 h; western blot; in one panel cells treated with 10 µM enzalutamide for 24 h (reduced AR in the KLF5 precipitate). Background: In western blotting, separated proteins are transferred to a membrane and probed.

In experiment [2] the target is FLAG-tagged KLF5 (Krüppel-like factor 5) (UniProt Q13887). The description is as above.
Experiment [3] addresses KLF5 fragment, residues 1-200 (UniProt Q13887). The experiment is described as above.
For experiment [4], the target named is endogenous KLF5 of C4-2B cells (human (endogenous in C4-2B)) (UniProt Q13887). Description: co-IP; endogenous proteins, C4-2B cell lysate; KLF5 antibody (self-made) or AR antibody, overnight at 4 °C, magnetic Dynabeads 2 h; normal IgG as negative control; western blot.
For experiment [5], the target named is endogenous Klf5 of mouse prostate (mouse (endogenous in mouse prostate)) (UniProt Q9Z0Z7). Description: co-IP; endogenous proteins, mouse prostate lysate; KLF5 antibody or AR antibody, overnight at 4 °C, magnetic Dynabeads 2 h; western blot.
Experiment [6] has as its target endogenous AR of C4-2B cells (human (endogenous in C4-2B)) (UniProt P10275). Description: co-IP; endogenous proteins, C4-2B cell lysate; KLF5 antibody (self-made) or AR antibody, overnight at 4 °C, magnetic Dynabeads 2 h; normal IgG as negative control; western blot.
Experiment [7] concerns the target endogenous Ar of mouse prostate (mouse (endogenous in mouse prostate)) (UniProt P19091). Description: co-IP; endogenous proteins, mouse prostate lysate; KLF5 antibody or AR antibody, overnight at 4 °C, magnetic Dynabeads 2 h; western blot.

Regarding “HA-tagged KLF5 (Krüppel-like factor 5) (from UniProt Q13887 1-457)”, the binding result in experiment [1] is given as “binds”.
Regarding “androgen receptor expressed from pSG5-AR (from UniProt P10275 1-920)”, the binding entry in experiment [2] and in experiment [3] was “binds” each time.
As for “endogenous AR of C4-2B cells (from UniProt P10275 1-920)”, the binding entry in experiment [4] is recorded as “binds”.
“endogenous Ar of mouse prostate (from UniProt P19091 1-899)”: in experiment [5], the binding result is “binds”.
Consider “endogenous KLF5 of C4-2B cells (from UniProt Q13887 1-457)”, for which the binding entry in experiment [6] is “binds”.
As to “endogenous Klf5 of mouse prostate (from UniProt Q9Z0Z7 1-446)”, the binding entry in experiment [7] was “binds”.
